Record: PubChem BioAssay AID720505 (Drosophila RNAi Screening Center, 2013)
The deposit covers about 20,000 reagents; this is an unselected part of those with a known target gene and a result. Of all reagents, about 2,100 (10%) got an active call. 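Raw plate signals without normalisation; calls rest on control-based scores that were not deposited; replicate 2 separates called from uncalled poorly.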 Entries without a mark were called inactive. No sequences are given here. The record does not give: the amount of reagent, the time to read-out.

- Screen: 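Knock-downs that reduce calcium influx once internal stores are emptied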 (primary screen)
- System: Drosophila S2R+ cells
- Reagents: long dsRNA against Drosophila genes
- Conditions: thapsigargin (2 µM) in calcium-free buffer to empty internal stores, then 2 mM calcium added back
- Measured: 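Stores emptied by 2 µM thapsigargin without calcium, then 2 mM calcium re-added; fluo-4 fluorescence followed by FLIPR in 384-well plates, per-well averaged endpoint, raw; two screen passes, some wells retested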
- Direction: calcium signal: higher = more calcium entry after store depletion
- Call rule: 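About 1500 genes called as lowering calcium entry, by varying amounts, judged against per-plate control wells with STIM1 as positive and Rho1 as negative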
- Meaning of the calls: active = called as lowering calcium entry; inactive = not called

Against Hey (Hairy/E(spl)-related with YRPW motif) [DRSC07440], the values are calcium signal, replicate 1 = 109; calcium signal, replicate 2 = 78.6. For Hey (Hairy/E(spl)-related with YRPW motif) [DRSC23030], the values are calcium signal, replicate 1 = 138; calcium signal, replicate 2 = 205. After knock-down of CG6262 [DRSC06971] the results were calcium signal, replicate 1 = 169; calcium signal, replicate 2 = 179. After knock-down of CG6262 [DRSC23105], the record shows calcium signal, replicate 1 = 87.4; calcium signal, replicate 2 = 152. CG31344 [DRSC16069] gave calcium signal, replicate 1 = 147; calcium signal, replicate 2 = 132. After knock-down of CG18178 [DRSC10302], the screen gave calcium signal, replicate 1 = 132; calcium signal, replicate 2 = 88.5.

CG8838 [DRSC00712] showed calcium signal, replicate 1 = 139; calcium signal, replicate 2 = 203.

2 entries from above in another layout.
| Gene | amplicon | calcium signal, replicate 1 | calcium signal, replicate 2 |
| --- | --- | --- | --- |
| CG6262 | DRSC06971 | 169 | 179 |
| CG6262 | DRSC23105 | 87.4 | 152 |

Additional entries follow:
With knock-down of CG17294 [DRSC02596] the results were calcium signal, replicate 1 = 97.6; calcium signal, replicate 2 = 211. Dd (Dullard) [DRSC20539] gave calcium signal, replicate 1 = 219; calcium signal, replicate 2 = 164. Silencing of BomS6 (Bomanin Short 6) [DRSC21676] gave: calcium signal, replicate 1 = 149; calcium signal, replicate 2 = 110. Knock-down of Pos (Poseidon) [DRSC15415] resulted in: calcium signal, replicate 1 = 84.8; calcium signal, replicate 2 = 116. mi (minus) [DRSC04498] scored calcium signal, replicate 1 = 150; calcium signal, replicate 2 = 83.9.
